Assay results: PubChem BioAssay AID504467 (National Center for Advancing Translational Sciences (NCATS), 2011)
The whole screen tested about 330,000 compounds, of which about 7,700 (2.3%) were called active. This list was built around the results that the source calls inconclusive (neither active nor inactive); the mix of calls is not that of the screen. Calls follow the shape of the dose curve; as a rule, active = well fitted inhibition curve with a large enough effect; inconclusive = small, poorly fitted or top-dose-only effect, or effect the other way; inactive = flat fitted curve, though single readings scatter. Potencies beside an inconclusive call are fits to weak or partial responses and may not hold up.

Assay: qHTS screen for small molecules that inhibit ELG1-dependent DNA repair in human embryonic kidney (HEK293T) cells expressing luciferase-tagged ELG1; also: nearly all actives have a fitted effect of over 55% in size
Conditions: HEK293T ELG1-luciferase reporter, luminescence, 16 h, DNA damage induced by 5-fluorouridine; series mostly up to 46.1 µM
Summary of the method: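 Cells (2,000 per well) received 5-fluorouridine plus test compound or DMSO and were incubated 16 hr at 37 °C, 5% CO2. Luciferase activity was read by luminescence 30 min after ONE-Glo addition; signal suppression marked inhibition of damage-induced ELG1 function.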
Potency is read from the fitted curve at half-maximal effect.

For `Cn1ncc(Cl)c1C(=O)N1CCCc2ccccc21`, which Potency is on record?
Its Potency is “inactive”.

With `COC(=O)c1c(C)oc(C)c1S(=O)(=O)NCc1ccco1` as the compound, how does the Potency read?
The Potency was “inactive”.

Which Potency does the source give for `Nc1cc(=O)[nH]c(SCC(=O)c2ccc(F)cc2)n1` here?
Its Potency is “inactive”.

For `CN1CCc2nc3sc(C(=O)C45CC6CC(CC(C6)C4)C5)c(N)c3cc2C1`, which Potency is on record?
Its Potency is “inactive”.

Which Potency does the source give for `C[C@H](NC(=O)c1ccc(Br)cc1)C(=O)NCc1ccc(S(N)(=O)=O)cc1` here?
The Potency was inconclusive: 20.6 µM [activator, single point].

For `CC(=O)c1c(C)[nH]c(C(=O)Nc2nccs2)c1C`, which Potency is on record?
The Potency was inconclusive: 16.4 µM [activator, partial curve].

For `O=C(c1cc(-c2cccs2)on1)N1CCCc2ccccc21`, which Potency is on record?
The Potency was inconclusive: 18.4 µM [activator, partial curve].

Which Potency does the source give for `O=c1c(Cl)c(NCc2ccccc2Cl)cnn1C12CC3CC(CC(C3)C1)C2` here?
The Potency was “inactive”.

With `O=[N+]([O-])c1cc2c(cc1/C=N/Nc1nc(N3CCCC3)nc(N3CCCC3)n1)OCO2` as the compound, how does the Potency read?
The Potency was inconclusive: 25.9 µM [inhibitor, single point].

With `CC(=O)N1N=C(c2ccc(C)o2)CC1c1ccc(Br)cc1` (stereo unspecified) as the compound, how does the Potency read?
The Potency was inconclusive: 20.6 µM [activator, partial curve].

With `CCN(CC)C(=O)C1CCN(S(=O)(=O)c2ccc3oc4ccccc4c3c2)CC1` as the compound, how does the Potency read?
The Potency was inconclusive: 35.5 µM [inhibitor, single point].

For `CN(Cc1ccccc1)Cc1nc2c(c(=O)n(C)c(=O)n2C)n1Cc1ccccc1Cl`, which Potency is on record?
Its Potency is active: 14.6 µM.

Which Potency does the source give for `COC(=O)c1ccc(C)c(NC(=O)CSc2nnc3ccccn23)c1` here?
Its Potency is “inactive”.

For `O=C(NNS(=O)(=O)c1ccc(Cl)cc1)c1cnn(-c2ccccc2)c1-n1cccc1`, which Potency is on record?
The Potency was “inactive”.

Which Potency does the source give for `CC(Oc1ccccc1F)C(=O)NNC(=O)CCS(=O)(=O)c1ccccc1Cl` (stereo unspecified) here?
The Potency was inconclusive: 25.9 µM [activator, single point].

For `CCc1ccc(N2C(=O)c3sc4nnc(-c5ccccc5)c(=O)n4c3C2=O)cc1`, which Potency is on record?
The Potency was “inactive”.

For `CCOCCCn1c(SCC(=O)Nc2cc(OC)ccc2OC)nc2ccccc2c1=O`, which Potency is on record?
The Potency was inconclusive: 8.2 µM [inhibitor, partial curve, poor fit].

For `Cc1cc(NC(=O)c2ccc(C)c(C)c2)no1`, which Potency is on record?
The Potency was inconclusive: 11.2 µM [activator, partial curve].

For `Oc1ccc(N=Nc2cccc(C(F)(F)F)c2)cc1C=Nc1ccc(N2CCOCC2)cc1`, which Potency is on record?
Its Potency is “inactive”.

Which Potency does the source give for `COC(=O)c1cc(OC)c(OC)cc1NC(=S)N1CCN(c2ccccn2)CC1` here?
The Potency was inconclusive: 20.6 µM [inhibitor, partial curve].

Which Potency does the source give for `Clc1ccc(-c2ccc(/C=N/Nc3nncc(-c4ccccc4)n3)o2)cc1` here?
Its Potency is “inactive”.

Which Potency does the source give for `COc1ccccc1-c1csc(NC(=O)c2ccc(N3C(=O)CCC3=O)cc2)n1` here?
The Potency was inconclusive: 29.1 µM [inhibitor, single point].

Which Potency does the source give for `CC(NC(=O)c1ccccc1F)C12CC3CC(CC(C3)C1)C2` (stereo unspecified) here?
Its Potency is “inactive”.

For `O=C(OCC(=O)N(CCc1ccccc1)Cc1ccccc1)c1ccccc1O`, which Potency is on record?
The Potency was “inactive”.

For `N#C/C(=C\c1ccc2c(c1)OCCO2)C(=O)Nc1nccs1`, which Potency is on record?
Its Potency is inconclusive: 20.6 µM [activator, single point].

Which Potency does the source give for `COc1cc(NC(=O)c2cc(C(C)C)on2)c(OC)cc1Cl` here?
The Potency was inconclusive: 16.4 µM [inhibitor, partial curve, poor fit].

For `Cc1ncc2c(c1OC(=O)c1ccccc1)COC(C)(C)OC2`, which Potency is on record?
Its Potency is inconclusive: 20.6 µM [activator, single point].

Which Potency does the source give for `Cc1ccc(-c2csc3ncnc(NCCC(=O)O)c23)cc1` here?
The Potency was inconclusive: 4.11 µM [inhibitor, partial curve, poor fit].

With `COc1ccc(/C=C2\Oc3cc(OC(=O)N4CCOCC4)ccc3C2=O)cc1` as the compound, how does the Potency read?
Its Potency is inconclusive: 23.1 µM [inhibitor, partial curve, poor fit].

For `CCCCn1c(N)c(N(CC(C)C)C(=O)Cc2ccc3c(c2)OCCO3)c(=O)[nH]c1=O`, which Potency is on record?
Its Potency is “inactive”.

With `CCOc1ccc(C(=O)N(CC)CC(=O)Nc2ccc3c(c2)OCCO3)cc1` as the compound, how does the Potency read?
Its Potency is inconclusive: 5.8 µM [activator, partial curve].

For `c1ccc(-c2cn(-c3ccccc3)c3[n+]2CCS3)cc1`, which Potency is on record?
Its Potency is active: 4.61 µM.

With `COC(=O)COc1ccc2c(c1C)O/C(=C\c1ccco1)C2=O` as the compound, how does the Potency read?
Its Potency is inconclusive: 25.9 µM [activator, partial curve, poor fit].

For `CCN1C(=O)/C(=C/c2nc3ccccc3c(=O)n2-c2ccc(C)cc2)c2ccccc21`, which Potency is on record?
The Potency was inconclusive: 5.8 µM [inhibitor, partial curve].

Which Potency does the source give for `CCS(=O)(=O)c1ccc2oc(Nc3ccc(C(C)(C)C)cc3)nc2c1` here?
The Potency was “inactive”.

Which Potency does the source give for `O=C(CN1CCN(c2ccccc2O)CC1)NC(c1ccccc1)c1ccccc1` here?
Its Potency is inconclusive: 0.0411 µM [inhibitor, full curve, poor fit].

For `CCOc1ccc(C(=O)Nc2nc3ccccc3[nH]2)cc1OCC`, which Potency is on record?
Its Potency is inconclusive: 32.6 µM [inhibitor, single point].

With `CCC1CCCCN1CCCNC(=O)c1cc2c(=O)oc3ccc(C)cc3c2s1` (stereo unspecified) as the compound, how does the Potency read?
The Potency was inconclusive: 32.6 µM [activator, single point].

For `Cn1c(N)c(C(=O)COC(=O)c2ccccc2C(=O)c2ccccc2)c(=O)n(C)c1=O`, which Potency is on record?
The Potency was “inactive”.

With `COCCC(=O)Nc1ccc2c(c1)CN(C(=O)c1ccc(CSC)o1)CC2` as the compound, how does the Potency read?
Its Potency is “inactive”.

With `Cc1ccccc1C(=O)Nc1ccnn1C1CCN(Cc2ccc(CO)o2)CC1` as the compound, how does the Potency read?
The Potency was inconclusive: 14.6 µM [activator, partial curve].

For `COc1cccc(C2CC(c3ccccc3Cl)n3ncnc3N2)c1` (stereo unspecified), which Potency is on record?
The Potency was “inactive”.

For `COC(=O)C(Cc1ccc(O)cc1)N1Cc2ccccc2C1=O` (stereo unspecified), which Potency is on record?
Its Potency is inconclusive: 11.6 µM [activator, partial curve].

With `CC(=O)N1CCCc2cc(S(=O)(=O)N3CCCC(C(=O)Nc4cc(C)ccc4C)C3)ccc21` (stereo unspecified) as the compound, how does the Potency read?
Its Potency is inconclusive: 20.6 µM [inhibitor, partial curve, poor fit].

For `CCOC(=O)c1nn(-c2ccc(C)c(C)c2)cc1O`, which Potency is on record?
Its Potency is inconclusive: 7.31 µM [activator, partial curve].

Which Potency does the source give for `S=C(NNC(=S)NC1CC2CCC1C2)NC1CC2C=CC1C2` (stereo unspecified) here?
The Potency was inconclusive: 29.1 µM [inhibitor, single point].

For `Cn1ccsc1=NC(=O)c1cc(S(=O)(=O)N2CCOCC2)ccc1Cl`, which Potency is on record?
The Potency was “inactive”.

With `COC(=O)C/C(C)=N/Nc1ccc(S(=O)(=O)N2CCCC2)cc1[N+](=O)[O-]` as the compound, how does the Potency read?
The Potency was inconclusive: 16.4 µM [activator, partial curve, poor fit].

Which Potency does the source give for `CCCCn1c(N)c(N(CC)C(=O)CCc2ccccc2)c(=O)[nH]c1=O` here?
The Potency was inconclusive: 16.4 µM [activator, single point].

For `O=C(Oc1ccc(C(=S)N2CCOCC2)cc1)c1ccccc1F`, which Potency is on record?
The Potency was “inactive”.

With `CN1CCN(c2ccc(S(=O)(=O)N3CCCCC3)cc2NC(=O)COc2cccc(Cl)c2)CC1` as the compound, how does the Potency read?
The Potency was inconclusive: 25.9 µM [inhibitor, single point].

Which Potency does the source give for `Cc1c(S(=O)(=O)NC2CCCCCC2)c(=O)n(C)c(=O)n1C` here?
The Potency was inconclusive: 18.3 µM [activator, single point].

With `O=C(CSc1nc2ncccc2[nH]1)Nc1ccc2c(c1)OCCO2` as the compound, how does the Potency read?
Its Potency is inconclusive: 16.4 µM [activator, partial curve].

With `COc1ccc(CNC(=O)C2CCN(S(=O)(=O)N3CCC4(CC3)OCCO4)CC2)c(OC)c1` as the compound, how does the Potency read?
The Potency was “inactive”.

For `Cc1cc(C(=O)COC(=O)c2ccc(F)cc2)c(C)n1C`, which Potency is on record?
Its Potency is inconclusive: 1.64 µM [activator, full curve].

For `Cc1csc(N2CCN(c3cc4c(cc3Cl)nc(-c3ccncc3)n4CCCN3CCCC3)CC2)n1`, which Potency is on record?
Its Potency is inconclusive: 0.231 µM [activator, single point].

Which Potency does the source give for `S=C(NCc1ccncc1)Nc1ccc(Cl)cc1Cl` here?
The Potency was active: 16.4 µM.

For `COc1cc(/C=C2/SC(=O)NC2=O)ccc1OCc1ccccc1`, which Potency is on record?
Its Potency is inconclusive: 29.1 µM [activator, single point].

With `CCOc1cc(/C=C/c2nc3ccccc3c(=O)[nH]2)cc(Br)c1OC` as the compound, how does the Potency read?
Its Potency is inconclusive: 20.6 µM [activator, partial curve, poor fit].

For `Cc1cc(C(=O)OCC(=O)N(C)c2ccccc2)c(C)o1`, which Potency is on record?
Its Potency is “inactive”.

Which Potency does the source give for `Cc1cc(Cl)c2oc(C(=O)N3CCC(O)(c4ccccc4)CC3)c(C)c2c1` here?
Its Potency is inconclusive: 18.3 µM [inhibitor, single point].

With `Nc1cc(Cl)nnc1Cl` as the compound, how does the Potency read?
Its Potency is “inactive”.

Which Potency does the source give for `CCN(CC)C(=O)c1ccc(Nc2nnc(C)c3ccccc23)cc1` here?
Its Potency is inconclusive: 16.4 µM [inhibitor, single point].

Which Potency does the source give for `COc1cccc(CSc2nnc(-c3ccncc3)n2C)c1` here?
The Potency was inconclusive: 1.16 µM [activator, full curve].

With `COc1cccc(/C(C)=N/Nc2ncc(Cl)cc2Cl)c1` as the compound, how does the Potency read?
Its Potency is inconclusive: 16.4 µM [activator, partial curve].

For `COc1cc(/C=N/NC(=O)CCC(=O)Nc2ccc(C)cc2)ccc1O`, which Potency is on record?
The Potency was “inactive”.

With `COc1ccc(C(=O)Nc2ccccc2C(=O)N/N=C/c2ccncc2)cc1OC` as the compound, how does the Potency read?
Its Potency is inconclusive: 0.92 µM [activator, partial curve].

Which Potency does the source give for `CCOc1ccccc1/C=C/c1onc(C)c1S(=O)(=O)N1CCC(C(=O)N2CCCCCC2)CC1` here?
Its Potency is active: 2.91 µM.

With `COc1ccc2nc3cccc(OC)c3nc2c1` as the compound, how does the Potency read?
The Potency was inconclusive: 29.1 µM [activator, single point].

With `O=C(C(=O)N1CCN(Cc2ccc3c(c2)OCO3)CC1)c1c[nH]c2ccccc12` as the compound, how does the Potency read?
Its Potency is inconclusive: 32.6 µM [inhibitor, single point].

Which Potency does the source give for `S=C(NCc1cccc(Cl)c1)NCc1ccco1` here?
Its Potency is “inactive”.
